Data published in PubChem BioAssay AID540276 (National Center for Advancing Translational Sciences (NCATS), 2011).
Values joined by “and” are separate entries in the source; they are usually repeats but may differ in a detail not shown here. Equal values may be shown once. In all, about 300,000 compounds went through this assay and about 5,400 (1.8%) were called active. This list was built around the results that the source calls inconclusive (neither active nor inactive); the mix of calls is not that of the screen. Calls come from the whole dose curve; tested in HEK293 cells. Potencies beside an inconclusive call are fits to weak or partial responses and may not hold up.

assay: qHTS for inhibitors of binding or entry into cells for Marburg Virus; details: Marburg virus pseudotyped entry inhibition, cell reporter; activity change, negative = inhibition: at 37.8 µM (top of the series) unless noted
% is set by controls: 0 for no effect and ±100 for the full control effect; potency is the fitted concentration of half-maximal effect.

Structure (SMILES)	Potency	activity change, negative = inhibition
O=C(Nc1ccc2c(c1)OCO2)c1cc(-c2cccc(Cl)c2)on1	inconclusive: 10 µM [activator, partial curve, poor fit]	–
Cc1ccc(S(=O)(=O)NC2=NCN(CC(=O)O)CN2)cc1	inconclusive: 35.5 µM [activator, single point]	–
NC(=O)c1ccc(-c2ccc(Br)cc2)o1	inactive	–
CCN(Cc1nc(-c2ccccc2)no1)C(=O)COc1cccc(OC)c1	inconclusive: 17.8 µM [inhibitor, single point]	–
Fc1ccc(C(OCCCc2cnc[nH]2)c2ccc(F)cc2)cc1	inconclusive: 16.4 µM [inhibitor, partial curve, poor fit] and inconclusive: 4.47 µM [inhibitor, partial curve, poor fit]	–
CCOC(=O)C1=C(COC(=O)/C=C/c2cccc(OC)c2OC)NC(=O)NC1C (stereo unspecified)	inactive	–
COCCn1c(-c2ccccc2)c(C)n2c3c(=O)n(C)c(=O)n(C)c3nc12	inconclusive: 5.62 µM [activator, single point]	–
CSc1ccc(/C=C(\C#N)C(=O)NC2CCCCC2)cc1	inconclusive: 8.91 µM [activator, partial curve, poor fit]	–
CCCCN(C)CC(O)Cn1cc(/C=C/C(=O)c2cccs2)c2ccccc21 (stereo unspecified)	inconclusive: 15.8 µM [inhibitor, single point]	–
CCc1cc(C(=O)NNC(=S)NCc2ccccc2)cs1	inactive	–
Clc1ccc(-c2ccc(CNCC3CCCO3)o2)cc1 (stereo unspecified)	inconclusive: 5.01 µM [activator, single point]	–
CCN(CC)S(=O)(=O)c1ccc(NC(=O)CN(c2cccc(F)c2)S(C)(=O)=O)cc1	inconclusive: 29.1 µM [inhibitor, partial curve, poor fit]	–
COc1ccccc1/C=C/C(=O)NC(=S)N1CCOCC1	inconclusive: 6.31 µM [inhibitor, single point]	–
COC(=O)CCC(=O)Oc1ccc(OC(=O)CCC(=O)OC)cc1	inactive	–
COc1ccc(N2CCN(C(c3ccccc3)c3nnnn3Cc3ccc(F)cc3)CC2)cc1 (stereo unspecified)	inconclusive: 35.5 µM [inhibitor, single point]	–
CCc1cc(C(c2ccc(OC)c(OC)c2)N2CCOCC2)c(NC(=O)c2ccccc2)s1 (stereo unspecified)	inconclusive: 0.112 µM [activator, full curve, poor fit]	–
CCc1ccccc1Nc1nc(N)nc(CSc2nnc3ccccn23)n1	inconclusive: 20 µM [activator, partial curve, poor fit]	–
COc1ccc(C(O)c2coc3ccc(O)c(CN(C)C)c23)cc1 (stereo unspecified)	inconclusive: 35.5 µM [inhibitor, single point]	–
COc1cccc(/C=C/C(=O)N2CCN(c3n[nH]c(=O)[nH]c3=O)CC2)c1OC	inconclusive: 0.251 µM [inhibitor, full curve, poor fit]	–
C=CCn1c(SCC(=O)N2CCc3ccccc3C2)nc2sc(C)cc2c1=O	inconclusive: 12.6 µM [inhibitor, partial curve, poor fit]	–
Cc1cc(C)c2[nH]c(=O)c(CN(Cc3ccc4c(c3)OCO4)Cc3nnnn3C3CCCC3)cc2c1	inconclusive: 16.4 µM [inhibitor, partial curve, poor fit]	–
CCOc1ccc(NC(=O)CN(C)C(=O)c2ccc(C)o2)cc1OCC	inconclusive: 3.55 µM [inhibitor, single point]	–

As a working copy, some entries already given.
Structure (SMILES)	Potency	activity change, negative = inhibition
CSc1ccc(/C=C(\C#N)C(=O)NC2CCCCC2)cc1	inconclusive: 8.91 µM [activator, partial curve, poor fit]	–
CCCCN(C)CC(O)Cn1cc(/C=C/C(=O)c2cccs2)c2ccccc21 (stereo unspecified)	inconclusive: 15.8 µM [inhibitor, single point]	–
CCc1cc(C(=O)NNC(=S)NCc2ccccc2)cs1	inactive	–
Clc1ccc(-c2ccc(CNCC3CCCO3)o2)cc1 (stereo unspecified)	inconclusive: 5.01 µM [activator, single point]	–

(listing goes on)

Structure (SMILES)	Potency	activity change, negative = inhibition
CCOC(=O)c1cc(NC(=O)N(CC)CC)c(C)nc1C	inconclusive: 29.1 µM [activator, partial curve, poor fit]	–
c1coc(CN(Cc2cccs2)Cc2nnnn2C2CCCCC2)c1	inactive	–
CCOc1ccc2nc(NC(=O)C3CCCN(S(=O)(=O)c4cccs4)C3)sc2c1 (stereo unspecified)	inconclusive: 28.2 µM [inhibitor, single point]	–
COc1ccc(-c2nc3c(-c4ccccc4)cnn3cc2C)cc1F	inconclusive: 31.6 µM [activator, single point]	–
O=[N+]([O-])c1c(NCCO)cc(N2CCN(Cc3ccc4c(c3)OCO4)CC2)c2nonc12	inconclusive: 35.5 µM [inhibitor, single point]	–
CCn1c(=N)n(Cc2ccccc2F)c2ccccc21	inconclusive: 5.01 µM [inhibitor, full curve, poor fit]	–
COc1ccccc1-c1cc(C(=O)N2CCN(c3ccccc3)CC2)no1	inactive and inconclusive: 35.5 µM [inhibitor, partial curve, poor fit]	–
O=C1NC(=O)N(Cc2ccc(F)cc2)C(=O)/C1=C\c1ccc([N+](=O)[O-])s1	inactive	–
O=C(CSc1nc2[nH]ncc2c(=O)n1-c1ccccc1)N1CCCc2ccccc21	inactive	–
COc1ccc(CNC(=O)CSCc2nc(-c3ccccc3F)oc2C)cc1	inconclusive: 6.31 µM [activator, single point]	–
CC(C)(C)c1ccc(-c2noc(CCC(=O)NCC3CCCO3)n2)cc1 (stereo unspecified)	inconclusive: 10.3 µM [inhibitor, partial curve]	–
C=CCn1c(C)cc(C(=O)CSc2n[nH]c(N)n2)c1C	inconclusive: 16.4 µM [activator, partial curve]	–
O=C(NCc1ccco1)c1ccccc1	–	inconclusive: 5.74% [activator]
COc1cc(NC(=O)CN2CCN(c3ccccn3)CC2)cc(OC)c1OC	inactive	–
O=C(Nc1ccc(OCc2cc(=O)n3ccsc3n2)cc1)c1ccc(F)cc1	inactive	–
CC(=O)Nc1ccc(S(=O)(=O)NCCC(=O)Nc2cccc(Cl)c2)cc1	inconclusive: 2.82 µM [inhibitor, partial curve, poor fit]	–
Cc1cc(C)cc(-n2nnnc2SCC(=O)Nc2cccc(NC(=O)c3ccco3)c2)c1	inconclusive: 22.4 µM [inhibitor, single point]	–
COc1ccc(CCNC(=O)Cn2cc(C(F)(F)F)cc(Cl)c2=O)cc1	inconclusive: 0.231 µM [activator, single point]	–
Cc1ccc(C)c(NC(=O)Cn2cnc3c(oc4ccccc43)c2=O)c1	inactive	–
CC(=O)n1cc(C(C[N+](=O)[O-])SCCN)c2ccccc21 (stereo unspecified)	active: 20.6 µM	–
O=C(Nc1nc(-c2ccccc2)cs1)c1ccc(Br)o1	inactive	–
CC(C)(C)C1CCc2nc(NC(=O)c3cccc(Cl)c3)sc2C1 (stereo unspecified)	inconclusive: 3.98 µM [activator, partial curve, poor fit]	–

Structure (SMILES)	Potency	activity change, negative = inhibition
O=c1[nH]c(SCc2ccccc2)nc2c1CCCC2	inconclusive: 5.62 µM [activator, single point]	–
O=C1C2CCC(C(O)C2)N1Cc1ccccc1 (stereo unspecified)	inactive	–
Cc1ccc(N(CCC(=O)O)S(=O)(=O)c2ccccc2)cc1	inconclusive: 25.1 µM [activator, partial curve, poor fit]	–
O=C(O)c1ccc(COc2ccc3c4c(c(=O)oc3c2)CCC4)o1	inconclusive: 2.82 µM [inhibitor, partial curve, poor fit]	–
O=C(/C=C/c1ccco1)Nc1ccc(Oc2ccccc2)cc1	inconclusive: 11.2 µM [inhibitor, partial curve]	–
CCCn1nnc(NC(=O)c2ccc([N+](=O)[O-])cc2Cl)n1	inactive	–
CC(C)Cn1c(N)c(C(=O)NCC2CCCO2)c2nc3ccccc3nc21 (stereo unspecified)	inconclusive: 17.8 µM [inhibitor, single point]	–
CN(C)S(=O)(=O)c1ccc(C(=O)NCC2CC2(Cl)Cl)cc1 (stereo unspecified)	inconclusive: 35.5 µM [activator, single point]	–
Cc1cccc(Oc2ccccc2NC(=O)CN2C(=O)NC3(CCCC3)C2=O)c1	inactive	–
O=C(Nc1ccc(C(F)(F)F)cc1)c1cnc(N2CCN(c3ccccn3)CC2)c2ccccc12	inactive	–
Nc1nc(SCC(=O)Nc2cc(-c3ccccc3)nn2-c2ccccc2)n[nH]1	inactive	–
CCCCSCCCNC(=O)C1CCN(Cc2nc(-c3ccc(CC)cc3)oc2C)CC1	inactive	–
CCn1c(O)c(N=NC(=O)c2cccc(S(=O)(=O)N3CCCCC3)c2)c2ccccc21	inconclusive: 12.6 µM [inhibitor, partial curve, poor fit]	–
Cc1cc(C)nc(SCc2cc(=O)c(OC(=O)c3cc([N+](=O)[O-])ccc3Cl)co2)n1	inactive	–
O=C(CCl)Nc1ccc(-c2ccccc2)cc1	inconclusive: 13 µM [inhibitor, partial curve, poor fit]	–
O=C(Nc1ccc([N+](=O)[O-])cc1Br)c1cc2ccccc2nc1Cl	inconclusive: 16.4 µM [inhibitor, partial curve, poor fit]	–
COc1ccc(OCC(=O)Nc2ccc(NC(=O)c3cccs3)c(OC)c2)cc1	inconclusive: 35.5 µM [activator, single point]	–
Cn1nc(C(F)(F)F)c(-c2ccc(Br)cc2)c1NC(=O)C1CCC1C(=O)O (stereo unspecified)	inconclusive: 35.5 µM [inhibitor, single point]	–
O=C(OCc1ccccc1F)c1cc([N+](=O)[O-])ccc1N1CCOCC1	inconclusive: 1 µM [activator, full curve]	–
CCOc1cc(C(=O)O)ccc1OCCOc1ccccc1	inconclusive: 3.16 µM [activator, partial curve, poor fit]	–
O=C(Nc1ccc([N+](=O)[O-])c(NC(=O)C2CCCO2)c1)C1CCCO1 (stereo unspecified)	inconclusive: 3.16 µM [inhibitor, single point]	–
COc1cccc(NC(=O)CN(C)S(=O)(=O)c2ccc(C)cc2)c1	inactive	–
